The target in assay [1] is T1, hemagglutinin (HA)-tagged NEK1 (NIMA-related kinase 1) (human) (UniProt Q96PY6).
T1 sequence: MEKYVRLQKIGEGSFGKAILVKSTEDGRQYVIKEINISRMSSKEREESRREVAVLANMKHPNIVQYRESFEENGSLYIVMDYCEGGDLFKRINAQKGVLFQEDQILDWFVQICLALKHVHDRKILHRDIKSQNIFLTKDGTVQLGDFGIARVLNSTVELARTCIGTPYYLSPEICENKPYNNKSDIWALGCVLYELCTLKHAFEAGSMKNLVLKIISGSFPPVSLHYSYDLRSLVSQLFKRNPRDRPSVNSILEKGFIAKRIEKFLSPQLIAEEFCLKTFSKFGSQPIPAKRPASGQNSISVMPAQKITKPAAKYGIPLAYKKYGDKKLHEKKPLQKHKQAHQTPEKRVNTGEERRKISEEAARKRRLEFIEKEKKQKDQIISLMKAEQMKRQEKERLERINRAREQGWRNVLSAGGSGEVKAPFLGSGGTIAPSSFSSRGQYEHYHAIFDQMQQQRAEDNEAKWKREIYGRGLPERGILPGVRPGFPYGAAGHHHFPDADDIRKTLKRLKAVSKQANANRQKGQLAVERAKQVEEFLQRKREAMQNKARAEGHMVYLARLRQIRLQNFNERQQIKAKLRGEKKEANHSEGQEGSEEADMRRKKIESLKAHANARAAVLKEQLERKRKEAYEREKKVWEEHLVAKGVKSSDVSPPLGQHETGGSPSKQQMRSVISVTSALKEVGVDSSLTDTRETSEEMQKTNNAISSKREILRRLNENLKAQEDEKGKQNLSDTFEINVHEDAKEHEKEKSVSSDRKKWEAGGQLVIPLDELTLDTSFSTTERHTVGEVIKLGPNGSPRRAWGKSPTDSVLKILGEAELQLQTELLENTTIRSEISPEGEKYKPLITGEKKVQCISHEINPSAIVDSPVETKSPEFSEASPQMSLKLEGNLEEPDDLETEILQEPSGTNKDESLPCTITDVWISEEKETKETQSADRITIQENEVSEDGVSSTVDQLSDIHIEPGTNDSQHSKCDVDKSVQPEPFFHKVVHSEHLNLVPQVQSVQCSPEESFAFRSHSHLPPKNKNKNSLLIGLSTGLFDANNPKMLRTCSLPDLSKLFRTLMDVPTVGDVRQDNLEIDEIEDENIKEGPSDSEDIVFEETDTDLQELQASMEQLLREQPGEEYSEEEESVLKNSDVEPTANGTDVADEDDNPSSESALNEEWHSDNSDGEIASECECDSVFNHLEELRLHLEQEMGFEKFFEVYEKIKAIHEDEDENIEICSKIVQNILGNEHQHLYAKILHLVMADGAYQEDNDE
Nature of the assay: co-IP; HA-NEK1 expressed in HEK293FT cells, immunoprecipitated (anti-HA), Western blot for endogenous proteins; DSP cross-linking before lysis. On the technique in general: A western blot detects proteins with antibodies after separation by electrophoresis.

Protein sequences, listed by entry. Tags and fused reporters are not part of them.
UniProt Q14974: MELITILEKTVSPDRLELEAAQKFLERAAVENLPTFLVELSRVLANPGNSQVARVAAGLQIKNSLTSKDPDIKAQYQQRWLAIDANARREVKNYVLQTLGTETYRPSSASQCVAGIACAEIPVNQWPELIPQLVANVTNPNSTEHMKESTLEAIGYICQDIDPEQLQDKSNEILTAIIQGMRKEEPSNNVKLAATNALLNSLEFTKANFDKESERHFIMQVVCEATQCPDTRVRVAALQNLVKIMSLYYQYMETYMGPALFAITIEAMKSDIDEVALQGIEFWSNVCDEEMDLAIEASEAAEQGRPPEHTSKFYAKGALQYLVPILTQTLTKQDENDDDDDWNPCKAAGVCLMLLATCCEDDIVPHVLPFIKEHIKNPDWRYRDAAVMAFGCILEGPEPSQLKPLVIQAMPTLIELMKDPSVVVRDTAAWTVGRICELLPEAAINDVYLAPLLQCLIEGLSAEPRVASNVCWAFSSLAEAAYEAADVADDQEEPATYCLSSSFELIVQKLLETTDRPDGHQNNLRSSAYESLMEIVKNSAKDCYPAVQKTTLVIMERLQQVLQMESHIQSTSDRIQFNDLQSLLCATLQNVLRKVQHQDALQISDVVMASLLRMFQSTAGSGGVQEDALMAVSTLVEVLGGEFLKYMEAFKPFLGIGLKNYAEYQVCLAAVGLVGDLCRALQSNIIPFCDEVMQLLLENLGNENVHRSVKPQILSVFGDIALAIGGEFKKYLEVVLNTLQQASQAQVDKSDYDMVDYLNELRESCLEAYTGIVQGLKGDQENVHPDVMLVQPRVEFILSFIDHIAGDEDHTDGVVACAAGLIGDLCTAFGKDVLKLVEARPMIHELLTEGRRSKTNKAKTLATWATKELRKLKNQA
UniProt Q07065: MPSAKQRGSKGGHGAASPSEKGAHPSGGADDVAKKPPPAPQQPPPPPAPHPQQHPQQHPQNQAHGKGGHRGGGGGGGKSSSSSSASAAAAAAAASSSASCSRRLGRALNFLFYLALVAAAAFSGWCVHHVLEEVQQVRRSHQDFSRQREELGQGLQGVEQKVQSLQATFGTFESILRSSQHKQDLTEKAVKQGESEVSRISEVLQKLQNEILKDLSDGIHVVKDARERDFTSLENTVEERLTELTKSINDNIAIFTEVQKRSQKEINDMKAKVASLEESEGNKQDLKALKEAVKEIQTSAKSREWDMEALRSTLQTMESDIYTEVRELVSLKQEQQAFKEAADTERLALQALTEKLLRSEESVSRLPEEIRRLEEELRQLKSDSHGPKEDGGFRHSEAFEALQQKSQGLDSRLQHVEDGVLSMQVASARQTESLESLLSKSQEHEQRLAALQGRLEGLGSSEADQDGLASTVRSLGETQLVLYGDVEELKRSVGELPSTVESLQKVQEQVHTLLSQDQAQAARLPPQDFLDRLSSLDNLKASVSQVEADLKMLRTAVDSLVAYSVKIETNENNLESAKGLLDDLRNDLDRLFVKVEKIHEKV
UniProt Q9UPY8: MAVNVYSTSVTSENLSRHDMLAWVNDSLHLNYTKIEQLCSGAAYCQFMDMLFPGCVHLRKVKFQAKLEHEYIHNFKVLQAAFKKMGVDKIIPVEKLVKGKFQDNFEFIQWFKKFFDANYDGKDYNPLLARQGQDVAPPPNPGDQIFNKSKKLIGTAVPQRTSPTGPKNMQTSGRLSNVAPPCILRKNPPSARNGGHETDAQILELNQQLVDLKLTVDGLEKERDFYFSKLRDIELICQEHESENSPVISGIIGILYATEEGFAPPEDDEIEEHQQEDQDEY

The target of assay [2] is importin-β1 (KPNB1), endogenous in human iPSC-derived motor neurons (human (endogenous in iPSC-derived MNs)) (UniProt Q14974). Kind of assay: co-IP; day 40 iPSC-derived MN lysates (control line), DSP cross-linking before lysis; endogenous KPNB1 immunoprecipitated with mouse anti-KPNB1 on Protein A Dynabeads, IgG control; Western blot.

These are yes or no findings as the source states them, for the method shown. Binding seen in cells or lysates may run through a third protein. For part of these data: Where a sequence is shown, tags or fusion partners need not be part of it.

For “CLIMP63, endogenous in HEK293FT cells (from UniProt Q07065 1-602)”, the binding entry in assay [1] was “no binding”.
On to “CLIMP63, endogenous in human iPSC-derived motor neurons (from UniProt Q07065 1-602)”, for which, in assay [2], the binding result is reported as “no binding”.
The same measure, in the same setting: the result for EB3 (from UniProt Q9UPY8 1-281) reads “no binding”.

(Values after publication PMC10431718.)
